Measurements reported in PubChem BioAssay AID1259308 (NCATS, 2017)
Aim: 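Knock-downs that increase output of a recombinant reporter protein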 (primary screen). System: human HEK293 embryonic kidney cells stably expressing firefly luciferase (HEK-CMV-Luc2-Hygro). Reagent: single siRNA against human genes, 0.8 pmol siRNA per well. Duration: 72 h. Detection: 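Luciferase light (ONE-Glo) measured on one replicate plate set and viability (CellTiter-Glo) on the other, scaled to a negative control siRNA, with robust z-scores and luciferase per cell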. Scale: total luciferase, z-score and total luciferase, % of control: higher = more reporter protein produced. Rule for the call: 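An siRNA counts as active if its total luciferase robust z-score exceeds 3; genes with two or more such siRNAs out of three were retested with fresh siRNAs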. Meaning of the calls: active = raised luciferase; inactive = no rise.
Here is a random part of about 59,000 deposited reagents. About 1,510 of all reagents (2.6%) count as active. 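Calls use total luciferase alone and ignore viability, so some active siRNAs may act by altering cell number.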 Reagents against one gene are numbered here. Further read-outs or replicates are left out here. No sequences are given here.

RBM8A (RNA binding motif protein 8A) #1 | total luciferase, z-score = 1.33; total luciferase, % of control = 108; outcome = inactive
RBM8A (RNA binding motif protein 8A) #2 | total luciferase, z-score = 1.17; total luciferase, % of control = 105; outcome = inactive
RBM8A (RNA binding motif protein 8A) #3 | total luciferase, z-score = 1.36; total luciferase, % of control = 109; outcome = inactive
LINC00242 (long independently transcribed non-coding RNA 242) #1 | total luciferase, z-score = 0.577; total luciferase, % of control = 93.4; outcome = inactive
LINC00242 (long independently transcribed non-coding RNA 242) #2 | total luciferase, z-score = -0.261; total luciferase, % of control = 76.7; outcome = inactive
LINC00242 (long independently transcribed non-coding RNA 242) #3 | total luciferase, z-score = 1.25; total luciferase, % of control = 107; outcome = inactive
MIS12 (MIS12 kinetochore complex component) #1 | total luciferase, z-score = -0.828; total luciferase, % of control = 65.4; outcome = inactive
MIS12 (MIS12 kinetochore complex component) #2 | total luciferase, z-score = 1.95; total luciferase, % of control = 121; outcome = inactive
MIS12 (MIS12 kinetochore complex component) #3 | total luciferase, z-score = 0.135; total luciferase, % of control = 84.6; outcome = inactive
CLCA2 (chloride channel accessory 2) #1 | total luciferase, z-score = -0.385; total luciferase, % of control = 74.2; outcome = inactive
CLCA2 (chloride channel accessory 2) #2 | total luciferase, z-score = -1.09; total luciferase, % of control = 60.1; outcome = inactive
CLCA2 (chloride channel accessory 2) #3 | total luciferase, z-score = -1.08; total luciferase, % of control = 60.4; outcome = inactive

Ordered by “total luciferase, % of control” (highest first): some entries from above
MIS12 (MIS12 kinetochore complex component) #2 | total luciferase, z-score = 1.95; total luciferase, % of control = 121; outcome = inactive
MIS12 (MIS12 kinetochore complex component) #3 | total luciferase, z-score = 0.135; total luciferase, % of control = 84.6; outcome = inactive
